Experimental data as given in the supplement of paper PMC10849652.
This is one part of the list.

Amino acid sequences for entries named in this document (tags omitted). A change or cut given only in a name is not applied to a line headed by its entry.
UniProt Q96AT1: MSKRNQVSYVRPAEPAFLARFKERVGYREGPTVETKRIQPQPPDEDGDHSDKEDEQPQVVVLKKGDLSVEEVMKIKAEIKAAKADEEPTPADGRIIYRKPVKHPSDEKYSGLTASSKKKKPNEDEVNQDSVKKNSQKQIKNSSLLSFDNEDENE
UniProt Q9BVA0, whole entry, looked up: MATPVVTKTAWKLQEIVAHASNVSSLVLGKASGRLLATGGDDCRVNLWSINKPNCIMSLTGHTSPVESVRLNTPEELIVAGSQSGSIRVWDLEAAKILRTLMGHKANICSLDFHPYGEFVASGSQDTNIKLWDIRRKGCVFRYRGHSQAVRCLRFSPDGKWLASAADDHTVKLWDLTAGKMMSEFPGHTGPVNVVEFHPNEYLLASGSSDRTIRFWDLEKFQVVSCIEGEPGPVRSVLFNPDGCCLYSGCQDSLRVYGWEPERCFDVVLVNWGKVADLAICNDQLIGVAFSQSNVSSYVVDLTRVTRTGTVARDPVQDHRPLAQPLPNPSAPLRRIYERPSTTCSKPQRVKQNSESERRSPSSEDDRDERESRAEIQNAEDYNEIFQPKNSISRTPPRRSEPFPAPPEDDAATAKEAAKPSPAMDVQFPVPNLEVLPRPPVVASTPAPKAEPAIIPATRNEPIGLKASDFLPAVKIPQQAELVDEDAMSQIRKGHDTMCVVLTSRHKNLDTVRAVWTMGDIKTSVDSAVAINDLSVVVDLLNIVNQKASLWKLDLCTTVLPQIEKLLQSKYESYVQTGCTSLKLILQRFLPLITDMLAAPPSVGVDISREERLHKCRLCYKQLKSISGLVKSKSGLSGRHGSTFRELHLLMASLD
UniProt Q14667: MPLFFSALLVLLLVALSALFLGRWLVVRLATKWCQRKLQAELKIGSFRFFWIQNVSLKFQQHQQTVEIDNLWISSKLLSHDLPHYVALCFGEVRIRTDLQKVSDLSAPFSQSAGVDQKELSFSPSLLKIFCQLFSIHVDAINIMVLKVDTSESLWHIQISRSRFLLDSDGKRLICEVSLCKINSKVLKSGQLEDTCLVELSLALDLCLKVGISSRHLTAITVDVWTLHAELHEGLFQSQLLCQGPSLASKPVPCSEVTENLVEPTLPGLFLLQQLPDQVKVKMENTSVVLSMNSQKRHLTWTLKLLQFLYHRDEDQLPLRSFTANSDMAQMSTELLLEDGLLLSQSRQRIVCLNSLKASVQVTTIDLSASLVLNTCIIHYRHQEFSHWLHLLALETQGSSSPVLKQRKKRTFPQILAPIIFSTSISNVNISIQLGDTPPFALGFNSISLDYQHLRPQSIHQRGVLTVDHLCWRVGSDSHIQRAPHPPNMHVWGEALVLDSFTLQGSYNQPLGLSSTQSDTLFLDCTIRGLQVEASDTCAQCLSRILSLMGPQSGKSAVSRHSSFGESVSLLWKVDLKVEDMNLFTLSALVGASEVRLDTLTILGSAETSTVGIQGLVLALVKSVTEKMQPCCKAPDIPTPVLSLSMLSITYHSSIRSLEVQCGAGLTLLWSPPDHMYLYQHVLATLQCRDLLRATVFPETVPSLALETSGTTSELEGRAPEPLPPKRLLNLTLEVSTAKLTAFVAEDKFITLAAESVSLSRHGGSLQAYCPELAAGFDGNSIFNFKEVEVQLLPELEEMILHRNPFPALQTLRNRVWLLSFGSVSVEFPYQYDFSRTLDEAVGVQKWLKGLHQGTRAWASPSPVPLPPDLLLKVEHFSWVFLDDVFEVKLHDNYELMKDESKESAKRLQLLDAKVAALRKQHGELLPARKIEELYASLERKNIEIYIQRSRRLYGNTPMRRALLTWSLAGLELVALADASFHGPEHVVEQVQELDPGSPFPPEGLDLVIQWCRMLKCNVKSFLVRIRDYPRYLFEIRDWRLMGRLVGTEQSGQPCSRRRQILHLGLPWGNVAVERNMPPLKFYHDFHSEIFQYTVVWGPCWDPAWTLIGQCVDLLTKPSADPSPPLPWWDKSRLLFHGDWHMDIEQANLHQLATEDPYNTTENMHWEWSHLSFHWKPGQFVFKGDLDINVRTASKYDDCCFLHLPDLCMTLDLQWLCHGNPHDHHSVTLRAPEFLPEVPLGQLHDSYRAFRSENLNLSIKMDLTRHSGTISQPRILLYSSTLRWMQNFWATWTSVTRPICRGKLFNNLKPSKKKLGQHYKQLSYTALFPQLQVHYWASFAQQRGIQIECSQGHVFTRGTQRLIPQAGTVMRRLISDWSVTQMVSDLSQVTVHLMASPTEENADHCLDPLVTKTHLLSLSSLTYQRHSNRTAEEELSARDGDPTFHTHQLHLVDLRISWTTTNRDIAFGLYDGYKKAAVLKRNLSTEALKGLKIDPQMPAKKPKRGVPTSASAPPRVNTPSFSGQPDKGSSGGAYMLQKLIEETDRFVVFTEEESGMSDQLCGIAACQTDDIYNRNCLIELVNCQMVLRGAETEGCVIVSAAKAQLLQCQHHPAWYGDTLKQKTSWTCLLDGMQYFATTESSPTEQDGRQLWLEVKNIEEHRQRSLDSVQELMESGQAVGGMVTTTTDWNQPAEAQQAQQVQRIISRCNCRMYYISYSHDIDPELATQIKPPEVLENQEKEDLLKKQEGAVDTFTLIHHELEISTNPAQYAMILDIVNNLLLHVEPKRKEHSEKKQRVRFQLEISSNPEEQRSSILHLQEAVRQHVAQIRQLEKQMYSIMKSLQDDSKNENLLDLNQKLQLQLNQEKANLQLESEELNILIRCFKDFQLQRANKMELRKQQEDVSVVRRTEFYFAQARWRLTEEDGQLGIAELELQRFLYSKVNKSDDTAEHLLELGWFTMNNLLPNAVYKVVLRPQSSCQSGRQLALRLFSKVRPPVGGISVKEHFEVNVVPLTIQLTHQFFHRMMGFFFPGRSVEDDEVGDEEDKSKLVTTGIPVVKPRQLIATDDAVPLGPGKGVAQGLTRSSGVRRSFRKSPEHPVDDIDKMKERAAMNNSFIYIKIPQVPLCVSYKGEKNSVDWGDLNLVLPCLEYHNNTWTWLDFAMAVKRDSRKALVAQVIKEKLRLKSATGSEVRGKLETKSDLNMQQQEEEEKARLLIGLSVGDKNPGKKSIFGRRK
UniProt Q07866: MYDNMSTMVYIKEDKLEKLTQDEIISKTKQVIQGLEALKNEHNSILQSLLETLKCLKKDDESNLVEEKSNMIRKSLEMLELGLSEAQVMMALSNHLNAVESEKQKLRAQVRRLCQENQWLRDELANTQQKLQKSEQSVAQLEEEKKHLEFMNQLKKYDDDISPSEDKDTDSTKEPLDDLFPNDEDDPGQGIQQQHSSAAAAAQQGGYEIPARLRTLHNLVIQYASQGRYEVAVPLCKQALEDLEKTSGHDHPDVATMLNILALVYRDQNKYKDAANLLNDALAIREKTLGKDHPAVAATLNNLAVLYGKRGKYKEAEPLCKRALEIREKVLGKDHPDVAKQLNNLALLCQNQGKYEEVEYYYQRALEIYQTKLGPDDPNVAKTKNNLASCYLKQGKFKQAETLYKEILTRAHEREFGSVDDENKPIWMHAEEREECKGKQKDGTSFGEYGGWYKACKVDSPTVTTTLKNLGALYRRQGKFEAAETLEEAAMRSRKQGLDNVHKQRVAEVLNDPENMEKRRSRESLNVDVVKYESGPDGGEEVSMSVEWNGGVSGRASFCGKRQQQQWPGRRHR
UniProt Q9BY66, whole entry, looked up: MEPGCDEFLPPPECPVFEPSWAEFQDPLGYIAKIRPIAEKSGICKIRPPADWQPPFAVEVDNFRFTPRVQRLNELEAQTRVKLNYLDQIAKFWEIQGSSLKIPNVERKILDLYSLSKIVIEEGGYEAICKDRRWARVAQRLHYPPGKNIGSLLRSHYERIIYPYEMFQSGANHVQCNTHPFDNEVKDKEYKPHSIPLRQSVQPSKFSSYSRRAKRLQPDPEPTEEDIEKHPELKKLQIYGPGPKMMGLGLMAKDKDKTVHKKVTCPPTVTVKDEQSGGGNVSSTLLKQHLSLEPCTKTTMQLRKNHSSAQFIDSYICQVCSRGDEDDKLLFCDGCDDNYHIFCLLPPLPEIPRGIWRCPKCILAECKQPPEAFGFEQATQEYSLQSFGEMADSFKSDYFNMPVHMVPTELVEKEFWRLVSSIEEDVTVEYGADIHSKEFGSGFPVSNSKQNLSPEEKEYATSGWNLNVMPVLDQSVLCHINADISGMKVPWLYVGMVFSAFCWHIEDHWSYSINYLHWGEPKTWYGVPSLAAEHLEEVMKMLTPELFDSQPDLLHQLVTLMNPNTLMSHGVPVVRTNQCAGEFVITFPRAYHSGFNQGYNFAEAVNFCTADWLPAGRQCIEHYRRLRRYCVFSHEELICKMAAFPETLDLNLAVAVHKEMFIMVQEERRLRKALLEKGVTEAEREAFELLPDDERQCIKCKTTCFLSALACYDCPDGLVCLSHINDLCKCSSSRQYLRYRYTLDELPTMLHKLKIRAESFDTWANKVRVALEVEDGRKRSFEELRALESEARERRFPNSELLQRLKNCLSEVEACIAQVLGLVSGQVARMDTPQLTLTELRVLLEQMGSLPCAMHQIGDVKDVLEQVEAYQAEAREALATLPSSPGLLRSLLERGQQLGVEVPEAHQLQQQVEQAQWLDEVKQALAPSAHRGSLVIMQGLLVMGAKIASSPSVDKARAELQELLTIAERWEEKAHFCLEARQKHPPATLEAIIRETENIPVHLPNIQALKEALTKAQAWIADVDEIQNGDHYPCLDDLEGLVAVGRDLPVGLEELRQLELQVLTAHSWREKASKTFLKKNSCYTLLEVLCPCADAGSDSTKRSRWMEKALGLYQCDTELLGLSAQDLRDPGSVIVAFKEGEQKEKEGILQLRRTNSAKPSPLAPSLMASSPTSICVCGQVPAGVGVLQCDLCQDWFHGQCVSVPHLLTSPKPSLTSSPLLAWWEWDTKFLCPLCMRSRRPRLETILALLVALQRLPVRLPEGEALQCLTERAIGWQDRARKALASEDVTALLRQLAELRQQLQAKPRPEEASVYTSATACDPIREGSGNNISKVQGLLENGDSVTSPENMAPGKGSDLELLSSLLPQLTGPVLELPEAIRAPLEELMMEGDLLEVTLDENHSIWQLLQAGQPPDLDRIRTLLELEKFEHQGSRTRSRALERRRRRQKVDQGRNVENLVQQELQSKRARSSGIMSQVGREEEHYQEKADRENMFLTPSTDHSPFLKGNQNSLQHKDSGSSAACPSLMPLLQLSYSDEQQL
UniProt P17275: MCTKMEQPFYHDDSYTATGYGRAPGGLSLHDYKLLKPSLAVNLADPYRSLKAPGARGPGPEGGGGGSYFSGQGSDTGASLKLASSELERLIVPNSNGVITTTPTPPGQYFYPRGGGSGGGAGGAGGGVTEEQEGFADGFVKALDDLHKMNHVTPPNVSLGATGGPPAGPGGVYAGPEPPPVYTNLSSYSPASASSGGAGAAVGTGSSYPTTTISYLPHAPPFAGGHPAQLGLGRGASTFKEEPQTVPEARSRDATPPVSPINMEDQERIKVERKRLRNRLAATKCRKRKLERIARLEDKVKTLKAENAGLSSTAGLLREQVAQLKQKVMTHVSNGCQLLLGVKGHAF
UniProt P23276: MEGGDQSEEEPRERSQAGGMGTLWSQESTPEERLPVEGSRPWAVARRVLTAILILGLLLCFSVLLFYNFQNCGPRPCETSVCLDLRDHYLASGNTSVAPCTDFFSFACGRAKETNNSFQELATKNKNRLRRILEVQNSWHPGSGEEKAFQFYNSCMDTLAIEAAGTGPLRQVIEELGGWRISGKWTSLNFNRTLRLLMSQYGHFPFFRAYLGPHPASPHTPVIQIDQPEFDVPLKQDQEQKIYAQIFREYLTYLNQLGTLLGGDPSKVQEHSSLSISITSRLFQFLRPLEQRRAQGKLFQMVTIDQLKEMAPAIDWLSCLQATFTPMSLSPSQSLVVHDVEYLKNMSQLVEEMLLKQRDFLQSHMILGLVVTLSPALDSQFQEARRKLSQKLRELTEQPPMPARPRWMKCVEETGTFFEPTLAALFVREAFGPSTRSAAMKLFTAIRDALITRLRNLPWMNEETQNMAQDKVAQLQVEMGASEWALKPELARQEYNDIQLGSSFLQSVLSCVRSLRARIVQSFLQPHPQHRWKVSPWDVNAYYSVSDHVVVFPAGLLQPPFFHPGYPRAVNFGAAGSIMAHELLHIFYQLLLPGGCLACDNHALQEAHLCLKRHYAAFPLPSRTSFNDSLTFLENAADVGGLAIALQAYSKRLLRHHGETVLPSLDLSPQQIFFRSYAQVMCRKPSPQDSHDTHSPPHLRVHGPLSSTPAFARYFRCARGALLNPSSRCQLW
UniProt P17535: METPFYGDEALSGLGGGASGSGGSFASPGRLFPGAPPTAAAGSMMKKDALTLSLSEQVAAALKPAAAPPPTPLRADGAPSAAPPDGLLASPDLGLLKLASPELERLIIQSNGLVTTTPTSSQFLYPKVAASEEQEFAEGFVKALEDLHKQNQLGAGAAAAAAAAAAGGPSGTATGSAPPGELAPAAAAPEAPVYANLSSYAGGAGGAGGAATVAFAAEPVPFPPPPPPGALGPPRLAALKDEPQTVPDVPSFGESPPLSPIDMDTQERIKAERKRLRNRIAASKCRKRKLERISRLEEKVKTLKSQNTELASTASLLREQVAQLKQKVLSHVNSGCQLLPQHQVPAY

compound: C/C(=N\NC(=O)C1=CC(=CC=C1)S(=O)(=O)N2CCOCC2)/C3=C(C=CC(=C3)Cl)O; assay: log2 fold change, soluble protein after heating vs DMSO (PISA); higher = thermal stabilisation; K562 cells, 10 uM, 30 min; active = over 0.2 and 3.5 SD of the protein, either way, in both replicates (recomputed)
How it was run: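 Soluble protein was defined as the supernatant after 21,000xg for 90 min. It came from K562 cells at 2×10^6 cells/mL given 10 μM compound for 30 min, heated in aliquots for 3 min across 48°C-58°C, pooled, and extracted in PBS with 0.5% NP-40 at 4°C, and was quantified by TMTpro 16plex LC-MS/MS with equalised channel sums. Thermal stability against control samples, from duplicates, is reported as log2 fold change.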

log2 fold change, inactive:
KIAA1143 (UniProt Q96AT1) -0.152
KLC2 (UniProt Q9H0B6) 0.063
KDM8 isoform 3 (UniProt Q8N371) 0.005
KPNA2 (UniProt P52292) -0.033
KMT2D isoform 3 (UniProt O14686) 0
KATNB1 (UniProt Q9BVA0) 0.074
KIF13A (UniProt Q9H1H9) -0.026
KHDRBS1 (UniProt Q07666) 0.042
KHSRP (UniProt Q92945) -0.004
KPNB1 (UniProt Q14974) 0.075
KNTC1 (UniProt P50748) 0.068
KIAA0100 (UniProt Q14667) -0.095
KLHL11 (UniProt Q9NVR0) 0.04
JAGN1 (UniProt Q8N5M9) -0.023
KLC1 isoform 6 (UniProt Q07866) 0.054
IVNS1ABP (UniProt Q9Y6Y0) 0.044
KNSTRN (UniProt Q9Y448) -0.017
KIF1B isoform 4 (UniProt O60333) 0.095
KARS1 (UniProt Q15046) -0.054
KDM1A isoform 2 (UniProt O60341) 0.039
KCTD5 (UniProt Q9NXV2) 0.062
KPNA1 (UniProt P52294) 0.09
KBTBD2 (UniProt Q8IY47) -0.204
KIF3A (UniProt Q9Y496) -0.06
KSR1 (UniProt Q8IVT5) 0.004
KIAA1522 isoform 2 (UniProt Q9P206) 0.105
JPT2 isoform 3 (UniProt Q9H910) -0.046
KIAA0319L (UniProt Q8IZA0) 0.015
KDM5D isoform 3 (UniProt Q9BY66) -0.142
JMJD6 isoform 3 (UniProt Q6NYC1) 0.011
JUNB (UniProt P17275) -0.209
KBTBD4 isoform 2 (UniProt Q9NVX7) 0.032
KIF5A (UniProt Q12840) 0.018
KEL (UniProt P23276) 0.042
KIAA1191 (UniProt Q96A73) 0.025
JUND (UniProt P17535) 0.02
KIF2C (UniProt Q99661) 0.09
KDM5C (UniProt P41229) -0.218
KIAA2013 isoform 2 (UniProt Q8IYS2) 0.014
KATNA1 (UniProt O75449) 0.023

Retrieved one by one from above, two records:
log2 fold change, inactive:
IVNS1ABP (UniProt Q9Y6Y0) 0.044
KHDRBS1 (UniProt Q07666) 0.042
